The other results are listed elsewhere or left out. Small differences around the control level are noise.
The targets below were run with CN[C@@H]1C[C@H]2O[C@@](C)([C@@H]1OC)n1c3ccccc3c3c4c(c5c6ccccc6n2c5c31)C(=O)NC4 [staurosporine] (assay: log2 fold change of tryptic peptide abundance, ligand vs vehicle (limited proteolysis) (log2 ratio); higher = more trypsin-susceptible (destabilized)). Details: ligand concentration: 20 uM; sample: K562 cleared lysate; digestion: 4 min, 22 C (HT-PELSA RT4min, Orbitrap Astral).

By UniProt entry, the sequences of proteins in these tests, tags left out. Where a name states a change or a piece, a line headed by the entry shows the natural chain unless it says otherwise.
UniProt Q86X53: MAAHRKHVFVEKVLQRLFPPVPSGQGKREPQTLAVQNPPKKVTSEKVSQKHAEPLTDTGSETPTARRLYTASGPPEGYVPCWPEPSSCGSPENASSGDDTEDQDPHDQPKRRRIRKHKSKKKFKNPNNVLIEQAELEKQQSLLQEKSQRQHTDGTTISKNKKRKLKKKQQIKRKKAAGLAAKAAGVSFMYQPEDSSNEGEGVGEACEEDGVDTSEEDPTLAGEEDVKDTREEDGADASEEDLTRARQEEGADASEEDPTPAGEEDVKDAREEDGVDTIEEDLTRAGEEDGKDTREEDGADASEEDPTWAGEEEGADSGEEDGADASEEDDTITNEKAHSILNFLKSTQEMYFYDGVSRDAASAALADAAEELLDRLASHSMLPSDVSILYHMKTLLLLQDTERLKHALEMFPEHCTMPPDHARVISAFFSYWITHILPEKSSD
UniProt Q8IY31, whole entry: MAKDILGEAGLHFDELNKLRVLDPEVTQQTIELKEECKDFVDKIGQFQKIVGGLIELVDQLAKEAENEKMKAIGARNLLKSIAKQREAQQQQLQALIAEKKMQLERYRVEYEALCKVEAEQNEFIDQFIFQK
UniProt Q86YR5: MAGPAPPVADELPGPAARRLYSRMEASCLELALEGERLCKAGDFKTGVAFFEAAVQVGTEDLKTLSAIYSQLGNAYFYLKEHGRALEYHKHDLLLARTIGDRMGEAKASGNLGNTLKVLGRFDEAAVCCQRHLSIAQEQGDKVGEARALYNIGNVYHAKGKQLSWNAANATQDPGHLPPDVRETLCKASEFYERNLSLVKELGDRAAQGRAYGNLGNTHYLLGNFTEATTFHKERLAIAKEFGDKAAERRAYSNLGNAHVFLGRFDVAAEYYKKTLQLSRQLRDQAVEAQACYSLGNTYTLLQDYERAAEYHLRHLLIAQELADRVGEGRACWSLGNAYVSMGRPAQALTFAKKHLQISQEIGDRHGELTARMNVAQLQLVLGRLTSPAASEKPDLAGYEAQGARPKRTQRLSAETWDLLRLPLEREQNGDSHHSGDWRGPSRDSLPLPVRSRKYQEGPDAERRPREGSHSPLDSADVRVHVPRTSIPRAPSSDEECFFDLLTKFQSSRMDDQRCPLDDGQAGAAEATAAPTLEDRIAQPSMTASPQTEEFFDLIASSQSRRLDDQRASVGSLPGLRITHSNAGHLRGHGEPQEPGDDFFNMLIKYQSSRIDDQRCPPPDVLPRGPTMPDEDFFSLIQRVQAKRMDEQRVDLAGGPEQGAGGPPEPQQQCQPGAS
UniProt Q8N3R9: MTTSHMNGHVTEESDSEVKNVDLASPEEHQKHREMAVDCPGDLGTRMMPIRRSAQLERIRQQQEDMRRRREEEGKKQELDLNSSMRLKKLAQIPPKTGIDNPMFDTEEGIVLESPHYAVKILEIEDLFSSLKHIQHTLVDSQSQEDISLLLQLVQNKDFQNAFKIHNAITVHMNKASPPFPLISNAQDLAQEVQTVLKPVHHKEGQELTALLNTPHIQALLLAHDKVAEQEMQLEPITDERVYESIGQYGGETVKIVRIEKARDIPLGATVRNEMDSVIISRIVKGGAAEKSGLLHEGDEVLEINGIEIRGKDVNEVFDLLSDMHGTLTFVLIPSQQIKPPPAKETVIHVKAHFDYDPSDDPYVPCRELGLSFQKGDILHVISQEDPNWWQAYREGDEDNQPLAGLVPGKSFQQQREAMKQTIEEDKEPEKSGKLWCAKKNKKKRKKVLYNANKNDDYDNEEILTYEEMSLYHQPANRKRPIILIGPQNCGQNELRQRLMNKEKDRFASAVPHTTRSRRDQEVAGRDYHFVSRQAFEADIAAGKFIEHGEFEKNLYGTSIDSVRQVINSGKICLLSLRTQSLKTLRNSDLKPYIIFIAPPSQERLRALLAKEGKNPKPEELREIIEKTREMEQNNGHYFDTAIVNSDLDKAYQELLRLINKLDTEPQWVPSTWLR
UniProt Q8IXM2, whole entry, looked up: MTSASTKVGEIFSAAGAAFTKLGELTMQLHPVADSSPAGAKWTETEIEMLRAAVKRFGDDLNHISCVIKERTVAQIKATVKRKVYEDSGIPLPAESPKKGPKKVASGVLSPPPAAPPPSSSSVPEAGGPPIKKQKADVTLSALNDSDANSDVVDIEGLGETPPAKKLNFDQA
UniProt Q86XI6: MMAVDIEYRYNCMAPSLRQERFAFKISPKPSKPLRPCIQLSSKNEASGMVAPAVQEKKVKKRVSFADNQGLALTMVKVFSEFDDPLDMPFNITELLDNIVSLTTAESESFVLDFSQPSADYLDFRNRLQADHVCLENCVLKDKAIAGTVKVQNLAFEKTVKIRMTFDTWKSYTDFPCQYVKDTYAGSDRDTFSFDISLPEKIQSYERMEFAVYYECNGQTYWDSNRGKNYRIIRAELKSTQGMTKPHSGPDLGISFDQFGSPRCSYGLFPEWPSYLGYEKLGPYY
UniProt Q8IV42: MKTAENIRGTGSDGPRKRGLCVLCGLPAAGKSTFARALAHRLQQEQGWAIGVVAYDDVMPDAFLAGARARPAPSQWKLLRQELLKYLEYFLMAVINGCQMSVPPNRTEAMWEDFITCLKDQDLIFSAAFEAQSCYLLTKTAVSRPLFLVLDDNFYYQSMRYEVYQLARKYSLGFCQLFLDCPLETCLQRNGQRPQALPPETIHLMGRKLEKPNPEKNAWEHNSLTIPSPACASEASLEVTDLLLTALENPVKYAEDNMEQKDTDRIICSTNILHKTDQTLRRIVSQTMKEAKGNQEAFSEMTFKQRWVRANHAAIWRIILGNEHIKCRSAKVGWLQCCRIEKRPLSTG
UniProt Q8IY17: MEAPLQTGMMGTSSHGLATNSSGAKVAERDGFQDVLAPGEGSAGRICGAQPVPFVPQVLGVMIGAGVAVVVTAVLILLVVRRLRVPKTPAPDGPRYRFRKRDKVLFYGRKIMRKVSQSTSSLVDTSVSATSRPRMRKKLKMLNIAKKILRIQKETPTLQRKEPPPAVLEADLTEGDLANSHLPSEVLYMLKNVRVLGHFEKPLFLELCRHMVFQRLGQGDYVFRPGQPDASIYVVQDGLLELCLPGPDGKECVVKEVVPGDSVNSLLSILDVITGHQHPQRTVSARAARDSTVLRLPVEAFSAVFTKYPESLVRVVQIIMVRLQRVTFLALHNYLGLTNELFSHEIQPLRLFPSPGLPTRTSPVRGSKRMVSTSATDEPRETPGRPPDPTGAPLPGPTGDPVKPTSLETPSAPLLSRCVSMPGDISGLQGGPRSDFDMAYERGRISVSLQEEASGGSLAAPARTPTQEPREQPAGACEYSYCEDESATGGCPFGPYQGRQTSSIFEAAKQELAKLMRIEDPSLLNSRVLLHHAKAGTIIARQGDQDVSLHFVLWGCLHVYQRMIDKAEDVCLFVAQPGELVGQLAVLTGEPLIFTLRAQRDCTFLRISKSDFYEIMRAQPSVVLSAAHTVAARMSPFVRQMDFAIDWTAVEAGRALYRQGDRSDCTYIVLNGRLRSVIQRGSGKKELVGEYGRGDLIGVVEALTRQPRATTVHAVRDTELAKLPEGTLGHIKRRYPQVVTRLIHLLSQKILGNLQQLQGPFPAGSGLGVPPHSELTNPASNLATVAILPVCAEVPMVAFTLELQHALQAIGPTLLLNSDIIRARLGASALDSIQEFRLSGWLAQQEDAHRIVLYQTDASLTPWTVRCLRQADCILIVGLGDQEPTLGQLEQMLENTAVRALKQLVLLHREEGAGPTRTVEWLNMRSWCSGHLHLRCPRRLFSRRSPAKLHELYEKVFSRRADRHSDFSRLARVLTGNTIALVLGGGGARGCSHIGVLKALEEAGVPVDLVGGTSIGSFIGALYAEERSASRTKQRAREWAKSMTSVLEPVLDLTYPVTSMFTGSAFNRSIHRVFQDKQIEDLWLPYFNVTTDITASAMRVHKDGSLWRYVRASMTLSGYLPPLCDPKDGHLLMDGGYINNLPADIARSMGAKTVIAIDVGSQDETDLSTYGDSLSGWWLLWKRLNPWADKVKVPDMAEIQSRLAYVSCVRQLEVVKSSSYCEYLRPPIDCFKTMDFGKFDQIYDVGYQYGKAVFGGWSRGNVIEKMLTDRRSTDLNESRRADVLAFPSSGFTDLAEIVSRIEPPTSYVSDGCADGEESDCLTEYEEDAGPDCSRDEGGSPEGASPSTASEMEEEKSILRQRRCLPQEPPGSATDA
UniProt Q8IVH2: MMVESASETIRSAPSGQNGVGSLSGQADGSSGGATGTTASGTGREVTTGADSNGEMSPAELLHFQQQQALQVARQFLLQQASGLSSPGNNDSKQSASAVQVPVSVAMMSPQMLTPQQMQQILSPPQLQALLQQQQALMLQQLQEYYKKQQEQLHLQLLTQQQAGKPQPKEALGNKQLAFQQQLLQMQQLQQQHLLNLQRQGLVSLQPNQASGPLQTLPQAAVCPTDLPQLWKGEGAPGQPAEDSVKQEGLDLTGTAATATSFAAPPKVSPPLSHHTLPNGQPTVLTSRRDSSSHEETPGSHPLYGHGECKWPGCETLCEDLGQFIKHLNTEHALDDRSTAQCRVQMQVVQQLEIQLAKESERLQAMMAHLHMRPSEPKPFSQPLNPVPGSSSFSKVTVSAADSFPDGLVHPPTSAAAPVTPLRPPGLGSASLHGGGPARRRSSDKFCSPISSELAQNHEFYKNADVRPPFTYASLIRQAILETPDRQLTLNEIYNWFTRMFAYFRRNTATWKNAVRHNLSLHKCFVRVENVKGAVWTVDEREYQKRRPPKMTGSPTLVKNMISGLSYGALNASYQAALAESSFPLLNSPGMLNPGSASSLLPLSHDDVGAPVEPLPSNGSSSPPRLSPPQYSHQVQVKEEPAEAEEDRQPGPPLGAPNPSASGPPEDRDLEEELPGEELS
UniProt Q8IWB9: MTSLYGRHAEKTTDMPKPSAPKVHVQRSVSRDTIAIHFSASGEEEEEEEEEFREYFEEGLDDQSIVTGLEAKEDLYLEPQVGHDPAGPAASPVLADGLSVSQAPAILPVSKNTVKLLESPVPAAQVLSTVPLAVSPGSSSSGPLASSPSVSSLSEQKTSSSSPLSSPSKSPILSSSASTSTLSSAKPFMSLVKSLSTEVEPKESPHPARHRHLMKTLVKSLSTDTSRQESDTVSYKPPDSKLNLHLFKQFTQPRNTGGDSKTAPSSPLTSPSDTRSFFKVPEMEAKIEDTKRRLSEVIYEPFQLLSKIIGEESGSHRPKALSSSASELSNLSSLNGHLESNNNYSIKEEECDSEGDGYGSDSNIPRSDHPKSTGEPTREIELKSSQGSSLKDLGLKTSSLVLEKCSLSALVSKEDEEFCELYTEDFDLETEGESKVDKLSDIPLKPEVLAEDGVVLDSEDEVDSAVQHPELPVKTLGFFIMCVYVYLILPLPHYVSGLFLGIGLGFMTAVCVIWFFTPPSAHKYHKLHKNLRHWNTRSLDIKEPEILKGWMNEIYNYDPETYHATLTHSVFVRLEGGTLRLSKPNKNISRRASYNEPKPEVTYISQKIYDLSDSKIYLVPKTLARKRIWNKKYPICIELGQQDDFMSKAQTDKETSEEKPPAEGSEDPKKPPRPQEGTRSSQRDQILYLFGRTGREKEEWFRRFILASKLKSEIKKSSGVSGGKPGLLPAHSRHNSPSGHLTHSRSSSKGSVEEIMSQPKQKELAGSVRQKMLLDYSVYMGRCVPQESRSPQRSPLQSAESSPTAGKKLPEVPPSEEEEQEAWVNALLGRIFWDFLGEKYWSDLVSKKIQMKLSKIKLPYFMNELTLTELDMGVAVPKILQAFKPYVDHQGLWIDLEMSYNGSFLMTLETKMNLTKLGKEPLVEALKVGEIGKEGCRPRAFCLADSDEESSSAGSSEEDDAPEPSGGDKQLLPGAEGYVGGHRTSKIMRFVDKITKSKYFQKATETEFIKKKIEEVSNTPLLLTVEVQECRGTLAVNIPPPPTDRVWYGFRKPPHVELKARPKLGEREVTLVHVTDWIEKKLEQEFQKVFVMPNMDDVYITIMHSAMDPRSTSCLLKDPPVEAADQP
UniProt Q8N131: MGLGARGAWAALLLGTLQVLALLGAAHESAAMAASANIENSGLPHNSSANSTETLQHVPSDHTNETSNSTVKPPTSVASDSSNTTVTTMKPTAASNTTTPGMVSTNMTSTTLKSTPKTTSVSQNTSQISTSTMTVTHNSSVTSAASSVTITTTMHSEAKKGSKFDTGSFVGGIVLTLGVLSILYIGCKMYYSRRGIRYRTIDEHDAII
UniProt Q8N0Z6: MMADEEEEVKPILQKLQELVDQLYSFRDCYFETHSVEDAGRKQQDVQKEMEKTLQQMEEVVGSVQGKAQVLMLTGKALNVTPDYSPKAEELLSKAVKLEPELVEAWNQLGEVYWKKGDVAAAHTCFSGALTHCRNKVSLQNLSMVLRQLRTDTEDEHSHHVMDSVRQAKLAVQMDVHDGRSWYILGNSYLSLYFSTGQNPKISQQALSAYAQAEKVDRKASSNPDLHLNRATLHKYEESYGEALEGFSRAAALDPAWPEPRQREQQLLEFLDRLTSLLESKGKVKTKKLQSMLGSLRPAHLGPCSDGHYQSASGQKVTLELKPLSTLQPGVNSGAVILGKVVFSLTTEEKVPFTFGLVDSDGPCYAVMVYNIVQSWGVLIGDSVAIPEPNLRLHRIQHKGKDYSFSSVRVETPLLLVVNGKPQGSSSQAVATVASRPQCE

| Target | log2 fold change |
| --- | --- |
| UniProt Q8IVL6 (peptide sequence: LLLEVSER, peptide start residue: 534) | -0.269 |
| ERICH1 (peptide sequence: HAEPLTDTGSETPTAR, peptide start residue: 51) (UniProt Q86X53) | 0.45 |
| IFT20 (peptide sequence: DILGEAGLHFDELNK, peptide start residue: 4) (UniProt Q8IY31) | -0.015 |
| UniProt Q8IYT2 (peptide sequence: ALFPHHVIPDSFLK, peptide start residue: 345) | 0.418 |
| UniProt Q86YR5 (peptide sequence: PAQALTFAK, peptide start residue: 345) | 0.706 |
| SBF2 (peptide sequence: WFVLDVTK, peptide start residue: 1764) (UniProt Q86WG5) | -0.452 |
| STK40 (peptide sequence: ALGSGISGNNAK, peptide start residue: 19) (UniProt Q8N2I9) | 0.375 |
| CCDC25 (peptide sequence: TADMDVGQIGFHR, peptide start residue: 101) (UniProt Q86WR0) | 0.209 |
| RBM12B (peptide sequence: YAFVMFK, peptide start residue: 326) (UniProt Q8IXT5) | -0.592 |
| HPS6 (peptide sequence: THVLLHHCPAFGLLASCR, peptide start residue: 181) (UniProt Q86YV9) | 0.742 |
| ARID3B (peptide sequence: QPHLAPLQMDAR, peptide start residue: 17) (UniProt Q8IVW6) | 0.147 |
| MPP5 (peptide sequence: QAFEADIAAGK, peptide start residue: 534) (UniProt Q8N3R9) | 0.566 |
| FMNL3 (peptide sequence: GGHEIILAAFDNFK, peptide start residue: 281) (UniProt Q8IVF7) | 1.05 |
| CHD1L (peptide sequence: NKGQDLLALIVAQHR, peptide start residue: 792) (UniProt Q86WJ1) | 0.148 |
| UniProt Q8IUZ5 (peptide sequence: FRNLDGQK, peptide start residue: 155) | -0.182 |
| UniProt Q8IXM2 (peptide sequence: KVYEDSGIPLPAESPK, peptide start residue: 83) | -0.436 |
| UniProt Q86XI6 (peptide sequence: STQGMTKPHSGPDLGISFDQFGSPR, peptide start residue: 239) | -0.253 |
| UniProt Q8IV42 (peptide sequence: YEVYQLAR, peptide start residue: 161) | -0.335 |
| PNPLA6 (peptide sequence: LAYVSCVR, peptide start residue: 1203) (UniProt Q8IY17) | 0.33 |
| RAB11FIP4 (peptide sequence: INLLNDLEAR, peptide start residue: 281) (UniProt Q86YS3) | -0.558 |
| FOXP4 (peptide sequence: QFLLQQASGLSSPGNNDSK, peptide start residue: 75) (UniProt Q8IVH2) | -0.57 |
| UniProt Q8IUF8 (peptide sequence: QLLLQVESTTVATRR, peptide start residue: 293) | 0.37 |
| TEX2 (peptide sequence: GSVEEIMSQPK, peptide start residue: 750) (UniProt Q8IWB9) | -0.503 |
| TMEM123 (peptide sequence: TIDEHDAII, peptide start residue: 200) (UniProt Q8N131) | 0.142 |
| RBM45 (peptide sequence: ERFSPFGDIQDIWVVR, peptide start residue: 43) (UniProt Q8IUH3) | -0.125 |
| HSCB (peptide sequence: LHGIEIPERTDYEMDR, peptide start residue: 144) (UniProt Q8IWL3) | 0.336 |
| TTC5 (peptide sequence: LAVQMDVHDGR, peptide start residue: 170) (UniProt Q8N0Z6) | 0.388 |
| DNAJC10 (peptide sequence: AYEVLKDEDLRK, peptide start residue: 83) (UniProt Q8IXB1) | -0.474 |

Single values from the list.
In log2 fold change, ARID3B (peptide sequence: QPHLAPLQMDAR, peptide start residue: 17) (UniProt Q8IVW6) has the entry 0.147
In log2 fold change, SBF2 (peptide sequence: WFVLDVTK, peptide start residue: 1764) (UniProt Q86WG5) has the entry -0.452

From the supplement of paper PMC12819154, “High-throughput peptide-centric local stability assay extends protein–ligand identification to membrane proteins, tissues and bacteria” (Nature Structural & Molecular Biology, 2025)
